Measured values published in publication doi:10.1101/2025.11.25.690410.
Read-outs that look alike come from different tables or passages of the source. These are yes or no findings as the source states them, for the method shown. In cells and extracts the contact can be indirect. These calls come from enrichment with a bait or labelling near it, and not all partners need be listed.

The chains behind the UniProt entries cited, without tags or fusion partners.
UniProt Q8C0J2: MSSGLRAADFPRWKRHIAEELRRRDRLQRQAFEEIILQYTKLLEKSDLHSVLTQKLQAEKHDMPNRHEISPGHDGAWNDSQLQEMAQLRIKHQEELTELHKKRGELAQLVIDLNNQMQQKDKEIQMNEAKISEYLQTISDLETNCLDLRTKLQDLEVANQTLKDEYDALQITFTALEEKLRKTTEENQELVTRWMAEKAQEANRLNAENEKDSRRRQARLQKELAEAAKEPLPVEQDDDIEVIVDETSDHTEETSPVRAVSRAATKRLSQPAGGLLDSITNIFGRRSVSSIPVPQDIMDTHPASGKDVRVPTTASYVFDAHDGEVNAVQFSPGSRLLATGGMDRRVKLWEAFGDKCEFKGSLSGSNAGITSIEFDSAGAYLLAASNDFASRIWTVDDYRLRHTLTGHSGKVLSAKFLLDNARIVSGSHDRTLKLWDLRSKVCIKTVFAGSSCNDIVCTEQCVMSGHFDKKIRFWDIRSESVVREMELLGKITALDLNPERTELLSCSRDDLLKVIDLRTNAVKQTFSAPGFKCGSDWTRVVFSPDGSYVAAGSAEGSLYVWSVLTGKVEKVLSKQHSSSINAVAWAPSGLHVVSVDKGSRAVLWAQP
UniProt Q8R317: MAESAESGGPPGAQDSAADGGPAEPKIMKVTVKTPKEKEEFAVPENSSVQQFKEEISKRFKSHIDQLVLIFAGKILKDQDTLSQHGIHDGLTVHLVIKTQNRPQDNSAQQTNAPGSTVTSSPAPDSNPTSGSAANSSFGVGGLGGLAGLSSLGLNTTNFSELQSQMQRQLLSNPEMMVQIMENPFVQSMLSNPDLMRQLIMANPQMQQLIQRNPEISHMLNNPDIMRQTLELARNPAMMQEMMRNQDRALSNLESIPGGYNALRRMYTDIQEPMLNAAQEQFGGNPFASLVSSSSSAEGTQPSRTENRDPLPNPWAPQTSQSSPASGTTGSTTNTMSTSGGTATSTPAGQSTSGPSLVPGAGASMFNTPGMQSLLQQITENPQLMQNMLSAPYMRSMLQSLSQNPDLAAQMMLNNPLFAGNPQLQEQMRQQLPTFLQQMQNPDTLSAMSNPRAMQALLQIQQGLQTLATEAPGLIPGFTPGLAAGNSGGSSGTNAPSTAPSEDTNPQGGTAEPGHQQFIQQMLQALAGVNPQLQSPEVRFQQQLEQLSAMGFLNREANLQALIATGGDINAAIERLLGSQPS

Key:
[1] = molecular target: ATG16L1 (mouse (endogenous in acute cortical slices)) (UniProt Q8C0J2); assay: affinity purification with mass spectrometry
[2] = molecular target: ATG16L1 (mouse (endogenous in acute cortical slices)) (UniProt Q8C0J2); assay: affinity purification with mass spectrometry; remark: listed apart in the source

Molecule: Ubqln1 (from UniProt Q8R317 1-582)
- binding [1]: binds

B1: Rab5b (protein, UniProt P61021 1-215)
chain: MTSRSTARPNGQPQASKICQFKLVLLGESAVGKSSLVLRFVKGQFHEYQESTIGAAFLTQSVCLDDTTVKFEIWDTAGQERYHSLAPMYYRGAQAAIVVYDITNQETFARAKTWVKELQRQASPSIVIALAGNKADLANKRMVEYEEAQAYADDNSLLFMETSAKTAMNVNDLFLAIAKKLPKSEPQNLGGAAGRSRGVDLHEQSQQNKSQCCSN
- binding [2]: binds

B2: ERC1 (protein, UniProt Q99MI1 1-1120)
chain: MYGSARSVGKVEPSSQSPGRSPRLPRSPRLGHRRTNSTGGSSGNSVGGGSGKTLSMENIQSLNAAYATSGPMYLSDHENVGAETPKSTMTLGRSGGRLPYGVRMTAMGSSPNIASSGVASDTIAFGEHHLPPVSMASTVPHSLRQARDNTIMDLQTQLKEVLRENDLLRKDVEVKESKLSSSMNSIKTFWSPELKKERALRKDEASKITIWKEQYRVVQEENQHMQMTIQALQDELRIQRDLNQLFQQDSSSRTGEPCVAELTEENFQRLHAEHERQAKELFLLRKTLEEMELRIETQKQTLNARDESIKKLLEMLQSKGLSAKATEEDHERTRRLAEAEMHVHHLESLLEQKEKENNMLREEMHRRFENAPDSAKTKALQTVIEMKDSKISSMERGLRDLEEEIQMLKSNGALSSEEREEEMKQMEVYRSHSKFMKNKVEQLKEELSSKDAQGEELKKRAAGLQSEIGQVKQELSRKDTELLALQTKLETLTNQFSDSKQHIEVLKESLTAKEQRAAILQTEVDALRLRLEEKETMLNKKTKQIQDMAEEKGTQAGEIHDLKDMLDVKERKVNVLQKKIENLQEQLRDKEKQMSSLKERVKSLQADTTNTDTALTTLEEALADKERTIERLKEQRDRDEREKQEEIDTYKKDLKDLREKVSLLQGDLSEKEASLLDIKEHASSLASSGLKKDSRLKTLEIALEQKKEECLKMESQLKKAHEATLEARASPEMSDRIQQLEREISRYKDESSKAQTEVDRLLEILKEVENEKNDKDKKIAELESLTSRQVKDQNKKVANLKHKEQVEKKKSAQMLEEARRREDSLSDSSQQLQDSLRKKDDRIEELEEALRESVQITAEREMVLAQEESARTNAEKQVEELLMAMEKVKQELESMKAKLSSTQQSLAEKETHLTNLRAERRKHLEEVLEMKQEALLAAISEKDANIALLELSSSKKKTQEEVAALKREKDRLVQQLKQQTQNRMKLMADNYEDDHFRSSRSNQTNHKPSPDQIIQPLLELDQNRSKLKLYIGHLTALCHDRDPLILRGLTPPASYNADGEQAAWENELQQMTQEQLQNELEKVEGDNAELQEFANTILQQIADHCPDILEQVVNALEESS
- binding [2]: binds

B3: Clasp2 (protein, UniProt Q8BRT1 1-1286)
chain: MRRLICKRICDYKSFDDEESVDGNRPSSAASAFKVPAPKTPGNPVSSARKPGSAGGPKVGGPSKEGGAGAVDEDDFIKAFTDVPSVQIYSSRELEETLNKIREILSDDKHDWDQRANALKKIRSLLVAGAAQYDCFFQHLRLLDGALKLSAKDLRSQVVREACITVAHLSTVLGNKFDHGAEAIVPTLFNLVPNSAKVMATSGCAAIRFIIRHTHVPRLIPLITSNCTSKSVPVRRRSFEFLDLLLQEWQTHSLERHAAVLVETIKKGIHDADAEARVEARKTYMGLRNHFPGEAETLYNSLEPSYQKSLQTYLKSSGSVASLPQSDRSSSSSQESLNRPFSSKWSTANPSTVAGRVSVGGSKANPLPGSLQRSRSDIDVNAAAGAKAHHAAGQAVRSGRLGAGALNPGSYASLEDTSDKMDGTASDDGRVRAKLSTPLVAVGNAKTDSRGRSRTKMVSQSQPGSRSGSPGRVLTTTALSTVSSGAQRVLVNSASAQKRSKIPRSQGCSREASPSRLSVARSSRIPRPSVSQGCSREASRESSRDTSPVRSFQPLGPGYGISQSSRLSSSVSAMRVLNTGSDVEEAVADALLLGDIRTKKKPARRRYESYGMHSDDDANSDASSACSERSYSSRNGSIPTYMRQTEDVAEVLNRCASSNWSERKEGLLGLQNLLKNQRTLSRIELKRLCEIFTRMFADPHGKVFSMFLETLVDFIQVHKDDLQDWLFVLLTQLLKKMGADLLGSVQAKVQKALDITRESFPNDLQFNILMRFTVDQTQTPSLKVKVAILKYIETLAKQMDPRDFTNSSETRLAVSRVITWTTEPKSSDVRKAAQSVLISLFELNTPEFTMLLGALPKTFQDGATKLLHNHLRNTGNGTQSSMGSPLTRPTPRSPANWSSPLTSPTNTSQNTLSPSAFDYDTENMNSEDIYSSLRGVTEAIQNFSFRSQEDMSEPVRRDPKKEDGDTICSGPGMSDPRAGGDAADGSQPALDNKASLLHSMPLHSSPRSRDYNPYNYSDSISPFNKSALKEAMFDDDADQFPDDLSLDHSDLVAELLKELSNHNERIEERKIALYELMKLTQEESFSVWDEHFKTILLLLLETLGDKEPTIRALALKVLKEILRHQPARFKNYAELTVMKTLEAHKDPHKEVVRSAEEAASVLATSISPEQCIKVLCPIIQTADYPINLAAIKMQTKVIERVSKETLNMLLPEIMPGLIQGYDNSESSVRKACVFCLVAVHAVIGDELKPHLSQLTGSKMKLLNLYIKRAQTGSAGADPTADVSGQS
- binding [2]: binds
